Three molecules from publication PMC8196013 can be followed below.

These are yes or no findings as the source states them, for the method shown. In cells and extracts the contact can be indirect. Some results given as binding are weak or reduced against the parent protein; the word gives no strength.

Holding throughout (assay): cross-linking; BS3 or DSSO (0.75 mM, 2 h on ice) in each of 44 SEC fractions of E. coli K12 BW25113 lysate, fractions pooled, digested, SCX and hSAX fractionation, LC-MS; PPIs at 1% heteromeric decoy-based PPI-FDR
The target in assay [1] is T1, DegQ (E. coli K12 (endogenous in BW25113)) (UniProt P39099).
T1 sequence: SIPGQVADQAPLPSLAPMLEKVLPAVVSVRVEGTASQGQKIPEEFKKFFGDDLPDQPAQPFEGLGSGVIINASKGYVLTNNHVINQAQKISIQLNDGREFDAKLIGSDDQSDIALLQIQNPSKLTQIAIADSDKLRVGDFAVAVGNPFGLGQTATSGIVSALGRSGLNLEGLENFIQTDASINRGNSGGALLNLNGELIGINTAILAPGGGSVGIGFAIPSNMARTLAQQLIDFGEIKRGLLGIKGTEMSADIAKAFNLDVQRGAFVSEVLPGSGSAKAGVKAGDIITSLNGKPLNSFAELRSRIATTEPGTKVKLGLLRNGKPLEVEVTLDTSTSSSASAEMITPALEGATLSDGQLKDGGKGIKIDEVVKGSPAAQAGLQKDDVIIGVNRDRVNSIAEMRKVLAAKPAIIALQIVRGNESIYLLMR

For assay [2], the target named is T2, YgaM (E. coli K12 (endogenous in BW25113)) (UniProt P0ADQ7).
T2 sequence: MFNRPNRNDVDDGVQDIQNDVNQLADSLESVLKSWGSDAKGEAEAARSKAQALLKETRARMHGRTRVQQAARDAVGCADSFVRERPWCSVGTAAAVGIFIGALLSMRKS

In assay [3] the target is T3, YqjD (E. coli K12 (endogenous in BW25113)) (UniProt P64581).
T3 sequence: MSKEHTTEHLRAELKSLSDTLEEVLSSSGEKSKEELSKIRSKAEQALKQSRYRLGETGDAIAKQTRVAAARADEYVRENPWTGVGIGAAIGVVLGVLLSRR

The target of assay [4] is T4, UbiJ (E. coli K12 (endogenous in BW25113)) (UniProt P0ADP7).
T4 sequence: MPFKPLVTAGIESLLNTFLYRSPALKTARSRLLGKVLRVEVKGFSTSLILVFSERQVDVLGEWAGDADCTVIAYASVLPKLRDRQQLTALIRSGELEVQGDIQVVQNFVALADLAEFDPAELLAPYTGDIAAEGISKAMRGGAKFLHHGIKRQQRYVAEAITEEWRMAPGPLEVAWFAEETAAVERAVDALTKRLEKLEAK

B1: DegP (enzyme, UniProt P0C0V0 27-474)
chain: AETSSATTAQQMPSLAPMLEKVMPSVVSINVEGSTTVNTPRMPRNFQQFFGDDSPFCQEGSPFQSSPFCQGGQGGNGGGQQQKFMALGSGVIIDADKGYVVTNNHVVDNATVIKVQLSDGRKFDAKMVGKDPRSDIALIQIQNPKNLTAIKMADSDALRVGDYTVAIGNPFGLGETVTSGIVSALGRSGLNAENYENFIQTDAAINRGNSGGALVNLNGELIGINTAILAPDGGNIGIGFAIPSNMVKNLTSQMVEYGQVKRGELGIMGTELNSELAKAMKVDAQRGAFVSQVLPNSSAAKAGIKAGDVITSLNGKPISSFAALRAQVGTMPVGSKLTLGLLRDGKQVNVNLELQQSSQNQVDSSSIFNGIEGAEMSNKGKDQGVVVNNVKTGTPAAQIGLKKGDVIIGANQQAVKNIAELRKVLDSKPSVLALNIQRGDSTIYLLMQ
Regarding B1, the binding entry in assay [1] is reported as “binds”.

B2: ElaB (protein, UniProt P0AEH5 1-101)
chain: MSNQFGDTRIDDDLTLLSETLEEVLRSSGDPADQKYVELKARAEKALDDVKKRVSQASDSYYYRAKQAVYRADDYVHEKPWQGIGVGAAVGLVLGLLLARR
Turning to B2, the binding result in assay [2] and in assay [3] was “binds” each time.

B3: UbiK (protein, UniProt Q46868 1-96)
chain: MIDPKKIEQIARQVHESMPKGIREFGEDVEKKIRQTLQAQLTRLDLVSREEFDVQTQVLLRTREKLALLEQRISELENRSTEIKKQPDPETLPPTL
B3: in assay [4], the binding result is reported as “binds”.
